These results are taken from PubChem BioAssay AID2685 (National Center for Advancing Translational Sciences (NCATS), 2010).

The test can be described thus: qHTS Assay for Lipid Storage Modulators in Drosophila S3 Cells.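 On cell number change: cells counted by Cell Tracker Red CMTPX staining in the red channel.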 As to conditions: BODIPY lipid droplet fluorescence, 18-24 h; for cell number change: measured here: cell count max response, cells fed with added oleic acid. In a few lines:
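Drosophila S3 cells loaded with oleic acid (400 uM, as added) and compounds at several concentrations; lipid droplets imaged by 488-nm laser-scanning cytometry, 500–530 nm intensity and object ratio to cell channel. Percent activity normalized to 20 uM Triacsin C.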

[1] abbreviates: measured here: lipid fluorescence (Fed channel) AC50, cells fed with added oleic acid.
[2] abbreviates: measured here: cell number channel AC50, cells fed with added oleic acid.

Structures are written as SMILES. Some of the results follow. Shown are side measurements of this screen, not its main read-out; they come without a call. Compounds called inactive in the main read-out are mostly missing here. The note in brackets gives the kind of curve behind each potency; many fits are weak.

Take `COc1ccc2c(c1)sc(N)[n+]2Cc1cc(C)cc2cccnc12`: the cell number change was -26.7%. Further, the AC50 under setting [1] is 10.3 µM [falling, partial curve, poor fit].
As to `COc1ccc2c(=O)cc(C(=O)O)oc2c1`, the cell number change amounted to 34.4%. Also, under setting [2], the AC50 was 25.9 µM [rising, single point].
Consider `CCc1ccc(C(C)(O)C(CN2CCOCC2)c2ccccc2)cc1` (stereo unspecified), for which the cell number change was -0.59%. Moreover, the AC50 under setting [1] was 0.0058 µM [rising, full curve, poor fit].
Regarding `O=C1C(Nc2ccccc2)=C/C(=N/S(=O)(=O)c2cccs2)c2ccccc21`, the cell number change is -76.9%. Also, the AC50 under setting [2] is 13 µM [falling, partial curve, poor fit]. In addition, the AC50 under setting [1] is 8.2 µM [falling, partial curve].
Regarding `Cc1nc(-c2ccc(Cl)cc2)sc1C1(C)CC(c2ccccc2F)=NO1` (stereo unspecified), the cell number change stood at 0.301%. Moreover, under setting [1], the AC50 is 18.4 µM [rising, single point].
As to `CCOC(=O)N1CCN(Cc2cn[nH]c2-c2cc3ccccc3o2)CC1`, the cell number change came to 8.27%. Also, under setting [1], the AC50 is 29.1 µM [rising, partial curve, poor fit].
On to `Cc1nc2c([nH]c3ccc(Br)cc32)s1`, for which the AC50 under setting [2] was 2.59 µM [rising, partial curve].
Regarding `CC1CCCC(C)N1/N=C/c1ccc([N+](=O)[O-])cc1` (stereo unspecified), the cell number change is -41.1%. For the same compound, under setting [2], the AC50 was 18.4 µM [falling, partial curve]. The AC50 under setting [1] is 2.59 µM [falling, full curve].
In the case of `Oc1ccccc1CNCc1ccccc1`, the cell number change turned out to be 9.83%. Besides, under setting [1], the AC50 is 29.1 µM [rising, single point].
For `Cc1ccc(C)c(Sc2ccc(NC(=O)CCl)cc2)c1`, the cell number change was -42.3%. In addition, the AC50 under setting [2] is 32.6 µM [falling, single point]. Moreover, under setting [1], the AC50 is 7.31 µM [falling, partial curve].
With `COc1ccc(Cl)cc1NC(=O)N1CCN(CCc2ccccc2)CC1`, the AC50 under setting [1] is 2.31 µM [rising, partial curve].
`CCN(Cc1nc2ccccc2c(=O)[nH]1)Cc1nc2ccsc2c(=O)[nH]1`: the cell number change is -37.3%.
On to `COc1ccc(/C=N/NC(=O)CCC(=O)Nc2ccc(F)cc2)c(OC)c1`, for which the cell number change was 6.45%. For the same compound, under setting [1], the AC50 is 29.1 µM [rising, single point].
On to `CCC(=O)Nc1nc2ccccc2n1Cc1ccc(Cl)cc1`, for which the cell number change was -23.3%. Moreover, the half-maximal activity concentration (AC50) under setting [1] is 3.66 µM [falling, single point].
In the case of `OCCNCCCCOc1ccccc1F`, the cell number change is -24.9%. Moreover, under setting [1], the AC50 is 0.58 µM [falling, single point].
With `Cn1cc(S(=O)(=O)Nc2cccc(F)c2)c(=O)n(C)c1=O`, the cell number change was -18.8%. For the same compound, under setting [1], the AC50 was 6.51 µM [falling, single point].
Take `CCCn1c(N)c(CC)c(=O)[nH]c1=O`: the cell number change is -16%. Under setting [1], the AC50 was 32.6 µM [falling, partial curve, poor fit].
As for `CCCN1CCN(C(=O)c2cc(COc3ccc(F)c(F)c3)on2)CC1`, the AC50 under setting [1] was 4.11 µM [falling, single point].
For the compound `COc1cccc(OCc2nc3ccccc3c(=O)n2N)c1`, the cell number change was -5.61%. Under setting [1], the AC50 is 0.82 µM [rising, partial curve].
As for `Cc1ccccc1CN1C2=NCCN2c2ccccc21`, the cell number change stood at 10.8%. Also, under setting [1], the AC50 was 0.116 µM [rising, full curve, poor fit].
On to `Nc1ccccc1SCC(=O)Nc1nc(-c2ccccc2)cs1`, for which the cell number change is -18.3%. Besides, under setting [2], the AC50 is 0.731 µM [falling, full curve, poor fit].
`CCCc1nnc(NC(=O)CSc2ncn[nH]2)s1`: the cell number change was -29.7%. Besides, under setting [2], the AC50 is 1.84 µM [falling, full curve, poor fit]. Besides, the AC50 under setting [1] was 2.59 µM [falling, single point].
For `O=C(/C=C/c1c[nH]c2ccccc12)c1cccc2ccccc12`, the cell number change was -54%. The concentration at half-maximal activity (AC50) under setting [2] was 29.1 µM [falling, single point]. In addition, the AC50 under setting [1] was 8.2 µM [falling, partial curve].
In the case of `CC(=O)NS(=O)(=O)c1ccc(N=c2ssc3c2-c2ccc(C)cc2NC3(C)C)cc1`, the cell number change was 5.31%. For the same compound, under setting [1], the AC50 was 4.61 µM [rising, full curve].
`CC(C)(C)NC(=O)c1cccc(NC(=O)CSc2ccccc2)c1`: the cell number change is -11.5%. For the same compound, the AC50 under setting [1] is 6.51 µM [falling, single point].
As to `Cc1cccn2c(=O)c3cc(C(=O)N4COCC4(C)C)sc3nc12`, the cell number change worked out at 4.09%. Further, the AC50 under setting [2] is 0.092 µM [rising, partial curve, poor fit]. For the same compound, the AC50 under setting [1] was 1.3 µM [rising, full curve].
Regarding `CCOc1ccc(N2CC(C(=O)Nc3ccc(S(=O)(=O)N4CCCCC4)cc3)CC2=O)cc1` (stereo unspecified), the cell number change is -13%.
As to `CCCNC(=O)c1onc(CSc2ccncc2)c1C(=O)NCCC`, the cell number change was determined as 15.5%. Besides, the AC50 under setting [1] was 0.58 µM [rising, full curve, poor fit].
In the case of `CN(C)C=Nc1c(Br)cc(Br)c2nonc12`, the cell number change was -100%. In addition, the AC50 under setting [2] was 5.8 µM [falling, full curve]. In addition, the AC50 under setting [1] was 2.91 µM [falling, full curve].
On to `Cc1cccc(C)c1NC(=O)CNC(=O)CCCN1C(=O)c2cccc3cccc(c23)C1=O`, for which the cell number change is -32.3%. Besides, under setting [2], the AC50 is 29.1 µM [falling, single point]. Further, the AC50 under setting [1] was 5.17 µM [falling, full curve, poor fit].
For the compound `Cc1ccc(S(=O)(=O)N2CCC(C(=O)N3CCc4ccccc43)CC2)cc1`, the cell number change was found to be 17.8%. Further, the half-maximal activity concentration (AC50) under setting [1] was 20.6 µM [rising, single point].
Regarding `COCCCn1nnnc1SCC(=O)Nc1nc(C)c(C)s1`, the cell number change was found to be 4.1%. Further, the AC50 under setting [1] is 0.731 µM [rising, partial curve].
For the compound `COc1ccc(Cl)cc1C(Nc1cccnc1)c1ccc2cccnc2c1O` (stereo unspecified), the cell number change was -8.24%. Also, the AC50 under setting [1] was 20.6 µM [falling, single point].
Consider `CS(=O)(=O)Nc1cccc(C(=O)CC2(O)C(=O)Nc3ccc(Br)cc32)c1` (stereo unspecified), for which the cell number change stood at 24.4%. Besides, the half-maximal activity concentration (AC50) under setting [1] was 3.66 µM [rising, full curve, poor fit].
With `Cc1ccc(C(=O)Nc2ccc(NC(=O)c3ccc(C)o3)cc2)o1`, the cell number change was -19.4%. Also, the half-maximal activity concentration (AC50) under setting [1] was 29.1 µM [rising, single point].
Regarding `COc1ccc(Cl)cc1NC(=O)C1CCCN(c2ncnc3c2nc2n3CCCCC2)C1` (stereo unspecified), the cell number change was -15.3%. Also, the AC50 under setting [1] is 29.1 µM [rising, single point].
As to `CCc1cc2c(=O)c(-c3nc4ccccc4n3C)c(C)oc2cc1OC(C)=O`, the cell number change was determined as 0.291%. In addition, the AC50 under setting [1] is 29.1 µM [falling, single point].
With `Cc1cccc(C)c1NC(=O)CNC(=O)Cn1nc(C)c(C)c(C#N)c1=O`, the cell number change came out at 31.3%. Under setting [2], the AC50 is 16.4 µM [rising, single point].
For `C[C@@H](C(=O)Nc1ccc2ccccc2c1)[C@H]1C[C@]1(C)[C@H](NC(=O)c1cccnc1)c1ccccc1`, the cell number change was 6.79%. The AC50 under setting [1] was 1.46 µM [rising, full curve].
Consider `CCC1CCCCN1c1nc2c(C=O)c(C)nn2c2ccccc12` (stereo unspecified), for which the cell number change was -24%. In addition, under setting [1], the AC50 is 18.4 µM [falling, single point].
With `O=C(NCc1ccc(Cl)cc1)C1CCCO1` (stereo unspecified), the cell number change was 17.9%.
For the compound `CCOc1ccccc1NC(=O)c1ccc2c(c1)C(=O)N(CC)C2=O`, under setting [1], the AC50 is 0.517 µM [rising, single point].
Take `Cc1nc(NC(=O)C2CC2)sc1C(=O)Nc1ccccc1`: the cell number change is -13.8%. For the same compound, under setting [1], the AC50 is 11.6 µM [falling, partial curve].
In the case of `O=C(NCCc1ccccc1)C(=O)NCC1CCCN1S(=O)(=O)c1ccccc1` (stereo unspecified), the AC50 under setting [2] was 0.116 µM [falling, full curve, poor fit].
Consider `CSc1oc(-c2ccccc2)nc1C(N)=O`, for which the cell number change turned out to be 38.7%. Under setting [2], the AC50 is 20.6 µM [rising, single point]. Moreover, the AC50 under setting [1] is 11.6 µM [rising, partial curve].
With `COC1=CC(=O)CC(C)C12Oc1c(Cl)c(OC)cc(OC)c1C2=O` (stereo unspecified), the cell number change turned out to be 19.5%. The AC50 under setting [1] is 0.0517 µM [falling, full curve, poor fit].
For `O=C(Cc1ccc(S(=O)(=O)N2CCOCC2)s1)N(Cc1ccccc1)c1ccccc1`, the cell number change amounted to 18.1%.
Turning to `CC1=CCC2C(=O)N(c3cccc(C(=O)NC(C)c4ccccc4)c3)C(=O)C2C1` (stereo unspecified), the AC50 under setting [2] is 1.3 µM [rising, full curve] and the concentration at half-maximal activity (AC50) under setting [1] is 29.1 µM [rising, single point].
As to `Cc1cc(OCC(=O)Nn2cnnc2)c(C)cc1Br`, the cell number change is -16.3%. Further, the AC50 under setting [2] is 5.8 µM [falling, single point].
With `O=C(c1cccs1)N1CCN(c2nc3ccccc3s2)CC1`, the cell number change was 19.4%. The AC50 under setting [2] was 0.184 µM [rising, full curve]. The half-maximal activity concentration (AC50) under setting [1] was 0.731 µM [rising, full curve].
With `CCOC(=O)c1nn(-c2ccc(C)cc2)c(=O)cc1OCC(=O)Nc1ccc(OC)cc1`, the cell number change was determined as 8.84%.
For the compound `O=C(Cn1nc(-c2cccc([N+](=O)[O-])c2)c2ccccc2c1=O)Nc1cccnc1`, the cell number change amounted to 63.4%. The AC50 under setting [2] was 2.06 µM [rising, full curve]. Besides, the half-maximal activity concentration (AC50) under setting [1] was 2.91 µM [rising, partial curve].
Take `Cc1cccc(NC2=NC(C)(C)N=C(N)N2)c1`: the cell number change is -17.5%. Further, the AC50 under setting [2] is 0.092 µM [falling, full curve, poor fit]. Also, the AC50 under setting [1] is 6.51 µM [falling, single point].
On to `Cn1nnnc1SCc1ccc(CSc2nnnn2C)cc1`, for which the cell number change was 38.4%. Besides, the AC50 under setting [1] was 0.116 µM [falling, full curve, poor fit].
For `COC(=O)c1c(C)[nH]c(C(C)=O)c1C`, the cell number change stood at 16.5%.
For `Cc1cc(Cl)c(S(=O)(=O)N2CCN(c3ccccn3)CC2)cc1OCC(N)=O`, the cell number change is -1.69%. Also, under setting [1], the AC50 is 0.184 µM [rising, full curve, poor fit].
Consider `O=Cc1cn(-c2ccccc2)nc1-c1ccccn1`, for which the cell number change is 3.48%.
Turning to `COc1ccccc1N1CCN(S(=O)(=O)/C=C/c2ccccc2)CC1`, the cell number change was 4.8%.
Consider `CN(CC(=O)Nc1ccncc1)S(=O)(=O)c1ccc(Br)cc1`, for which the cell number change was -0.799%. Moreover, under setting [1], the AC50 is 0.58 µM [falling, single point].
Take `Cc1occc1C(=O)Nc1cnn(CCCC(=O)O)c1`: the cell number change is 11.3%.
As for `COc1cc2c3nnc(-c4ccc(F)cc4)c-3cn(Cc3ccc(F)cc3)c2cc1OC`, the cell number change is -75.6%. For the same compound, the AC50 under setting [2] is 20.6 µM [falling, single point]. The concentration at half-maximal activity (AC50) under setting [1] is 29.1 µM [falling, single point].

In general, AC50 refers to the concentration at which the activity in the assay is half-maximal.
